Measured values from PMC5568431.
These are yes or no findings as the source states them, for the method shown. Binding seen in cells or lysates may run through a third protein. Some results given as binding are weak or reduced against the parent protein; the word gives no strength. Values belong to the binder of their own block, whether it stands above or below them.

Tests used:
[1] = biological target: T1, Mic27 (S. cerevisiae (endogenous in isolated yeast mitochondria)) (UniProt P50945); test: cross-linking + co-IP; WT or Δmic27 mitochondria treated or not with MBS, solubilized with digitonin (4 g/g), immunoprecipitation with purified anti-Mic27 antibody, Western blot
T1 sequence: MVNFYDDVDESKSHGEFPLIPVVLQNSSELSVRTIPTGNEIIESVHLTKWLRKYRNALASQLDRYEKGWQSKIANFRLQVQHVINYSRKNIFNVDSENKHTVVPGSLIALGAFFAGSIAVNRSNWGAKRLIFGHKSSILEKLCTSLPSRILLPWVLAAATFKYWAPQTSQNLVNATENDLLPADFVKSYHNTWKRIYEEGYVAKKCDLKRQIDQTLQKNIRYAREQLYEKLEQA

[2] = biological target: T1, Mic27 (S. cerevisiae (endogenous in isolated yeast mitochondria)); test: cross-linking; isolated mitochondria (WT and deletion strains, among them Δmic27, Δmic10, Δsu e) in 0.6 M sorbitol, 20 mM HEPES pH 7.4, 400 μM MBS for 30 minutes, stopped with 100 mM glycine pH 8; DMSO as negative control; SDS-PAGE and Western blotting
[3] = biological target: T2, Mic10 (S. cerevisiae (endogenous in isolated yeast mitochondria)) (UniProt Q96VH5); test: co-IP; WT, Δmic10 and Δmic27 mitochondria solubilized with digitonin (4 g/g) in 50 mM NaCl, 50 mM imidazole/HCl pH 7, 1 mM EDTA; affinity purified anti-Mic10 or anti-Mic27 antibody on protein A Sepharose CL-4B; pre-immune serum and deletion strains as negative controls; Western blot
T2 sequence: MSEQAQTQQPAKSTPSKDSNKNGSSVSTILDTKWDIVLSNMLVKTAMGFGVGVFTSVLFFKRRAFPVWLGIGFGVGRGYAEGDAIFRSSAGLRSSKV

[4] = biological target: T1, Mic27 (S. cerevisiae (endogenous in isolated yeast mitochondria)); test: as above
[5] = biological target: T2, Mic10 (S. cerevisiae (endogenous in isolated yeast mitochondria)); test: cross-linking; isolated mitochondria (WT and deletion strains, among them Δmic27, Δmic10, Δsu e) in 0.6 M sorbitol, 20 mM HEPES pH 7.4, 400 μM MBS for 30 minutes, stopped with 100 mM glycine pH 8; DMSO as negative control; SDS-PAGE and Western blotting

B1: Mic10 (protein, UniProt Q96VH5 1-97)
chain: T2 sequence
- binding [1]: binds
- binding [2]: binds

B3: F1FO-ATP synthase subunit e (protein, UniProt P81449 1-96)
chain: MSTVNVLRYSALGLGLFFGFRNDMILKCNAKKKEEQAQYEEKLKLVEEAKKEYAKLHPVVTPKDVPANASFNLEDPNIDFERVILNAVESLKEAST
- binding [4]: no binding
- binding [3]: binds
- binding [2]: no binding
- binding [5]: binds

The remaining lines, values ahead:

- binding [3]: binds
B2: Mic60 (protein, UniProt P36112 18-540)
chain: ASINTGTTVASKKASHKFRNTLWTIALSATAFYAGGIIYSQKNDKFGDFFSNNVPFAEDLLETYEHYHDRPTLFLEDSWDGLKAKSNDLLSGLTGSSQTRRSNRENIEVKKILSLEPLNIETENSDPQLKEIIGSLNDLINSLNDSNLSIPESEFNSIKKSNQNMLTNLSQLNETLKEALSNYMIQRTSEVITELNTQYENSKREFEKNLQKNLLQEVDEFKENLTKQKDKELEEKLKANEELLQAKHANEVGLLSITQVKEFNKIIKDKIEKERNGRLAHLEEINSEVNDLSKSIDRSSKILSKNEALVQLTFQVDEIKSRINNNNLPDVNIDKELSRLKLLSNLLSTFNKKSCCDDGDCCSCKKGNKNEGKEGKISCKCKPKTNPPSLLSVALDELESTCSGKKILSNEQIYNRWNLLADDFKTASLLPPNSGILGQLTAKVFSLFLFTKTGNPSNATDFDSVYARVGDNLRVSNLNDAVEEVVSLKGWPHKVCESWIEDARRKLEVQRLVEILDCEIRTL

- binding [4]: binds
- binding [3]: binds
B4: F1FO-ATP synthase subunit γ (protein, UniProt P38077 34-311)
chain: ATLKEVEMRLKSIKNIEKITKTMKIVASTRLSKAEKAKISAKKMDEAEQLFYKNAETKNLDVEATETGAPKELIVAITSDKGLCGSIHSQLAKAVRRHLNDQPNADIVTIGDKIKMQLLRTHPNNIKLSINGIGKDAPTFQESALIADKLLSVMKAGTYPKISIFYNDPVSSLSFEPSEKPIFNAKTIEQSPSFGKFEIDTDANVPRDLFEYTLANQMLTAMAQGYAAEISARRNAMDNASKNAGDMINRYSILYNRTRQAVITNELVDIITGASSLG

- binding [3]: binds
B5: Mic26 (protein, UniProt P50087 1-233)
chain: MTKDFYRQLDPVEEKIVPPENAIVISSEAKEATVNEKEAKQGVLSQRVMKYIGENELVDGISVRDPDYLKRFFNERRKQFSAKWDKVTNKIDDIAGRYYAREESFTSTIASLHTDPNERLIPGLLSILVASMTGSVLARRRTWLLRATMPIILGSCCFAYAMPTTFRNTMGLIHNLEMNTFPHFTERQDRVWKETKRLSTASVQYYYDAKKWLNKDVEKTGNAIKNWTGVNVK
